Test results: paper PMC9355941

Sequences of proteins named here, by UniProt entry; tags and fusion partners are left off.
UniProt O94972: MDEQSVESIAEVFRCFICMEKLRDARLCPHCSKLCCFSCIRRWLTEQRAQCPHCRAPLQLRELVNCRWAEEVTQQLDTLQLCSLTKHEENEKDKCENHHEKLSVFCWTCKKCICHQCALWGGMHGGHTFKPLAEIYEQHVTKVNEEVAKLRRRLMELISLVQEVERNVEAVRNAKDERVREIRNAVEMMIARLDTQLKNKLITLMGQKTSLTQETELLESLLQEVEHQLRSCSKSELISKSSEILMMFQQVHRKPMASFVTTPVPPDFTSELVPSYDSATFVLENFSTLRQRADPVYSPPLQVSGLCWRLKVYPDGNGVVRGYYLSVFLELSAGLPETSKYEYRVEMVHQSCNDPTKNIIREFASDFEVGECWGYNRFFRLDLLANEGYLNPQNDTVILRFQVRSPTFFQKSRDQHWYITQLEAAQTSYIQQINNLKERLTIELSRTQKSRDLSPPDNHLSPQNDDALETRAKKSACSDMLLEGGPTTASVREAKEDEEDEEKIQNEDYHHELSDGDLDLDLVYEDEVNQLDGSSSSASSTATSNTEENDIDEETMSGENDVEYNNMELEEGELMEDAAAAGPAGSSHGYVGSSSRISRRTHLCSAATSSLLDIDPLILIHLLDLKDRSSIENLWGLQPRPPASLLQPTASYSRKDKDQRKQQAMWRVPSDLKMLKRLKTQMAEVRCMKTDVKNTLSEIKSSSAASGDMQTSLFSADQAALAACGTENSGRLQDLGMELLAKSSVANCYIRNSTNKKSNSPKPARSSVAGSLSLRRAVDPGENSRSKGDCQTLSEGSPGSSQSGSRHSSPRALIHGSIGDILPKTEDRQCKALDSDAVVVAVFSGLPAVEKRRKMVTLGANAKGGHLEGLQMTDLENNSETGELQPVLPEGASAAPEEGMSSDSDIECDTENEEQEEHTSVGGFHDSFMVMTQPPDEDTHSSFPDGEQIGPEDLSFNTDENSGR

Target: T1, PDZ-binding kinase (PBK), endogenous (human (endogenous in UWB1.289 and SKOV3)) (UniProt Q96KB5)
T1 sequence: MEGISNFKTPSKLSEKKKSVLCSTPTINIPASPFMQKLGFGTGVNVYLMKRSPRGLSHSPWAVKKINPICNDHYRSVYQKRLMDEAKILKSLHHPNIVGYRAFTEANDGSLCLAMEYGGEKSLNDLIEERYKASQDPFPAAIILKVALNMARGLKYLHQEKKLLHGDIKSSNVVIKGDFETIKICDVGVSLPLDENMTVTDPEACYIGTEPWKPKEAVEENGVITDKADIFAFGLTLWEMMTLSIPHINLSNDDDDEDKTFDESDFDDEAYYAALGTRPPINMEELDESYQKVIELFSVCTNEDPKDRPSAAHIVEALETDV
Test: affinity purification with mass spectrometry; UWB1.289 cells with or without olaparib (2 µM, 24 h); lysate immunoprecipitated with anti-PBK antibody or rabbit IgG; SDS-PAGE, LC-MS/MS

tripartite motif containing 37 (TRIM37), endogenous (from UniProt O94972 1-964)
binding: binds

No constants are given. Whether binding was seen depends on the method and setting. In cells and extracts the contact can be indirect. These calls come from enrichment with a bait or labelling near it, and not all partners need be listed.
